Test results reported in PubChem BioAssay AID2685 (National Center for Advancing Translational Sciences (NCATS), 2010).
This is one part of the list. Shown are side measurements of this screen, not its main read-out; they come without a call. Most of these compounds were active or inconclusive in the main read-out, so they are no random draw. The note in brackets gives the kind of curve behind each potency; many fits are weak.

Assay: qHTS Assay for Lipid Storage Modulators in Drosophila S3 Cells;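 on cell number change: cells counted by Cell Tracker Red CMTPX staining in the red channel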
Conditions: BODIPY lipid droplet fluorescence, 18-24 h; for cell number change: measured here: cell count max response, cells fed with added oleic acid
Procedure, shortened: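 Laser-scanning cytometry quantifies lipid droplet accumulation (500–530 nm total intensity; droplet/cell object ratio) in oleic acid-fed (400 uM added) Drosophila S3 cells treated with a concentration series. 20 uM Triacsin C defined 100% inhibition.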

[1] = measured here: cell number channel AC50, cells fed with added oleic acid
[2] = measured here: lipid fluorescence (Fed channel) AC50, cells fed with added oleic acid

Structure (SMILES) | cell number change [%] | AC50 [1] | AC50 [2]
O=C1NC(=O)C(=C2CCCCCC2)S1 | -42.4 | 2.59 µM [falling, full curve] | 0.0461 µM [rising, full curve]
COc1cc(OC)c(C(=O)OCC(=O)Nc2ccccc2Cl)cc1OC | 18.8 |  | 0.103 µM [falling, single point]
COc1ccc(S(=O)(=O)N2CCCCC2)cc1NC(=O)c1ccc2ccccc2n1 | 17.4 |  | 2.59 µM [rising, partial curve]
COc1cc(/C=C2\N=C(c3c(-c4ccccc4)noc3C)OC2=O)ccc1OC(C)=O | 14.9 |  | 2.59 µM [rising, single point]
Cc1ccc(NC(=O)NCCCCc2ccccc2)cc1 | -29.9 |  | 35.5 µM [falling, single point]
Nc1nnnn1/N=C/c1ccc(O)cc1 | -1.03 |  | 
CCOC(=O)CSc1nc(C)c(C(C)=O)cc1C#N |  |  | 0.103 µM [rising, full curve, poor fit]
COc1ccccc1NC(=O)COc1ccc2c(c1)OCO2 |  | 1.46 µM [falling, partial curve] | 
CCc1ccc(NC(=O)c2cccc(NC3=NC4CS(=O)(=O)CC4S3)c2)cc1 (centres undefined) | 22.5 |  | 4.11 µM [rising, partial curve, poor fit]
Cc1ccc(Nc2cc(C)c3ccc(O)cc3n2)cc1C | -4.89 |  | 1.64 µM [rising, partial curve]
O=C(COc1ccc(Br)cc1)NCCNC(=O)c1cccnc1 | 7.41 |  | 31.6 µM [rising, single point]
CC1CC(C)(C)CC2(C1)NC(=O)N(CC(=O)Nc1cc([N+](=O)[O-])ccc1F)C2=O (centres undefined) | 3.32 |  | 1.46 µM [rising, full curve]
COc1ccc(NC(=O)N2CCCC2C(=O)NCc2cccs2)cc1 (centres undefined) | 18.5 |  | 0.58 µM [falling, single point]
COc1ccc(OC)c(NC(=O)CCN2CC(C)OC(C)C2)c1 (centres undefined) | 10 |  | 6.51 µM [rising, single point]
COc1ccc(NC(=O)CSc2nnc(-c3ccoc3C)n2CCc2ccccc2)cc1 | 24.6 |  | 0.461 µM [rising, partial curve, poor fit]
CSc1nsc(SCC(=O)N2CCCc3ccccc32)n1 | -25.9 |  | 
O=C(CN(C(=O)c1csnn1)c1ccc(F)c(Cl)c1)NC1CCCC1 | 10.1 |  | 
COc1cc(CNCCNCC(C)O)ccc1OCc1ccc(Cl)nc1 (centres undefined) | -15.2 |  | 0.146 µM [falling, full curve, poor fit]
O=C(NC(=S)N1CCN(c2ccccc2)CC1)c1ccc(S(=O)(=O)N2CCOCC2)cc1 | -9.71 |  | 13 µM [rising, partial curve, poor fit]
Cc1ccccc1C1C(=O)c2ccccc2C1=O |  |  | 29.1 µM [falling, single point]
O=C(O)C1CCN(C(=O)c2ccccc2N2C(=O)[C@@H]3Cc4c([nH]c5ccccc45)C(c4cccc(Cl)c4)N3C2=O)CC1 (some centres undefined) | -1.17 |  | 0.13 µM [rising, full curve, poor fit]

Quoted from the listing:
AC50 [2] with COc1cc(CNCCNCC(C)O)ccc1OCc1ccc(Cl)nc1 (centres undefined) is entered as 0.146 µM [falling, full curve, poor fit]
AC50 [2] with CCOC(=O)CSc1nc(C)c(C(C)=O)cc1C#N is entered as 0.103 µM [rising, full curve, poor fit]

Next part.

Structure (SMILES) | cell number change [%] | AC50 [1] | AC50 [2]
CCn1c(C)nc2cc(C(=O)NNS(=O)(=O)c3ccccc3F)ccc21 | -5.21 |  | 
C#CCSc1nc(Cc2ccc(Cl)cc2)nc2ccccc12 | 94.9 | 29.1 µM [rising, single point] | 
Cc1[nH]c2ccc(C(=O)NC3CCC(C)CC3)cc2c1C (centres undefined) | 5.65 |  | 
Cc1ccc(C)c(CN2C(=O)c3ccccc3S(=O)c3ccc(C(=O)N4CCN(c5ccccn5)CC4)cc32)c1 (centres undefined) | 34.6 |  | 13 µM [rising, partial curve]
COc1ccc(Cn2c(=O)sc3ccccc32)cc1OC | -25.9 |  | 
CCC1Oc2ccc(C)cc2N(CC(=O)NCc2ccccc2OC)C1=O (centres undefined) | -40.8 | 29.1 µM [falling, single point] | 29.1 µM [falling, single point]
Cc1nn(CC(=O)Nc2ccc(Cl)cc2Cl)c(=O)c2ccccc12 | 22.3 | 0.103 µM [rising, full curve, poor fit] | 
Cc1ccc(CN(C)C(=O)c2cccc(S(=O)(=O)N3CCCC3)c2)cc1 | -4.27 |  | 2.91 µM [rising, full curve, poor fit]
O=C(CN1C(=O)C(=O)N(C2CCCC2)C1=O)Nc1ccc(Cl)cc1C(F)(F)F | -29.9 |  | 6.51 µM [rising, single point]
CCN(CC)S(=O)(=O)c1ccc(NC2CCN(Cc3ccccc3)CC2)nc1 | -10.8 |  | 
CC(=O)N1CCN(C(=O)c2ccc3c(c2)OCCO3)CC1 |  | 1.16 µM [falling, partial curve] | 
CC(C)(OC(=O)c1ccc(C(F)(F)F)cc1)c1cc2ccccc2c(=O)o1 | -21.6 |  | 4.11 µM [falling, single point]
COc1cc(CNC(C)C23CC4CC(CC(C4)C2)C3)cc(OC)c1OC (centres undefined) | 16.3 |  | 
CN(CC(=O)Nc1ccccc1Cl)C(=O)COC(=O)c1ccc(Cl)cc1[N+](=O)[O-] | 18.8 | 2.91 µM [rising, full curve, poor fit] | 5.17 µM [rising, single point]
Cc1[nH]c(=S)c(C#N)c(C)c1C(=O)Nc1ccccc1 |  |  | 1.84 µM [falling, partial curve, poor fit]
O=S(=O)(c1ccc(Cl)cc1)N1CCN(c2ccc(N3CCOCC3)nn2)CC1 | 30.1 | 29.1 µM [rising, single point] | 
CCN(CC)S(=O)(=O)c1ccc(Cl)nc1 | -15.6 | 0.651 µM [falling, partial curve, poor fit] | 0.092 µM [falling, full curve, poor fit]
COc1ccc(C(CNC(=O)c2cc(C)on2)N(C)C)cc1 (centres undefined) | -2.52 |  | 6.51 µM [rising, single point]
O=C1CSC2(N1)C1CC3CC(C1)CC2C3 (centres undefined) | -3.23 | 0.00461 µM [rising, full curve, poor fit] | 
COc1ccc(/C=N/OCC(=O)N2CC3(C)CC2CC(C)(C)C3)cc1OC (centres undefined) | 69.8 | 1.64 µM [rising, full curve] | 2.59 µM [rising, full curve]
COc1ccccc1-n1cnnc1SCC(=O)N1CCOCC1 |  |  | 0.0103 µM [falling, full curve]

Structure (SMILES) | cell number change [%] | AC50 [1] | AC50 [2]
CC(C)N(C(=O)C(=O)c1cccn1-c1ccccc1C#N)C(C)C | -93.3 | 29.1 µM [falling, partial curve] | 0.13 µM [falling, full curve, poor fit]
C=CCC1NS(=O)(=O)O[C@H](CCCC)[C@@H]1O (some centres undefined) | 39.5 | 20.6 µM [rising, partial curve, poor fit] | 
Clc1ccccc1CN1CCN(/N=C/C=C\c2ccco2)CC1 |  | 0.731 µM [rising, single point] | 
COc1cc2c(cc1OC)C(c1cc(Br)c(OC)c(OC)c1)CC(=O)N2 (centres undefined) | -14.3 |  | 20.6 µM [falling, single point]
Cc1nnc(SCc2ccc(Cl)c(Cl)c2)s1 | 15.8 |  | 10.3 µM [rising, single point]
CCOC(=O)c1[nH]c(C)c(C(=O)NCCC2=CCCCC2)c1C | 36.5 | 29.1 µM [rising, single point] | 3.66 µM [rising, full curve]
CCOC(=O)C1(C)NC(c2ccc(OC)c(OC)c2)C2C(=O)N(CC)C(=O)C21 (centres undefined) | -81.2 | 18.4 µM [falling, partial curve, poor fit] | 
COc1ccccc1C(=O)C1CCCN(C(=O)CN2CCCCC2=O)C1 (centres undefined) | -23.1 |  | 
COc1cccc(CNC(=O)c2ccc(NC3=NC4CS(=O)(=O)CC4S3)cc2)c1 (centres undefined) |  |  | 29.1 µM [rising, single point]
CC(=O)Nc1ccc(Cl)c(C(N)=O)c1 |  | 0.00461 µM [falling, full curve, poor fit] | 0.82 µM [falling, partial curve]
COc1cc(S(=O)(=O)Nc2cccc(C)c2)ccc1NC(=O)c1cccnc1 | 54 | 3.66 µM [rising, partial curve, poor fit] | 6.51 µM [rising, partial curve, poor fit]
O=S(=O)(Cc1ccccc1)N1CCn2c(nc3ccccc32)C1 | -1.98 |  | 0.0326 µM [rising, full curve]
Cc1cc(C)cc(N2CC34C=CC(O3)C(C(=O)OCC(=O)NCc3ccco3)C4C2=O)c1 (centres undefined) | -32.2 | 5.8 µM [falling, full curve, poor fit] | 4.61 µM [rising, full curve, poor fit]
CS(=O)(=O)N(CC(=O)NCc1ccncc1)c1cc(Cl)ccc1Cl | -19.2 |  | 
CCOC(=O)C1=C(c2cccc(F)c2)NC(=S)NC1C (centres undefined) | 82.1 | 5.8 µM [rising, partial curve, poor fit] | 0.366 µM [rising, full curve]
Cc1cc2cc(CNC(=O)c3ccco3)ccc2n1C | -63.8 | 14.6 µM [falling, partial curve] | 16.4 µM [falling, partial curve]
COc1cccc(C2NC(=O)NC(C)=C2C(=O)OCC2CCCO2)c1 (centres undefined) | 6.51 |  | 
CC1CCN(c2ccc(-c3ccc(NC(=O)C(F)(F)F)cc3)nn2)CC1 | -88.9 |  | 2.59 µM [rising, partial curve]
CCC(=O)N1c2ccc(S(=O)(=O)CCC(=O)NCc3cccs3)cc2CC1C (centres undefined) | 43.4 | 11.6 µM [rising, partial curve, poor fit] | 
